The test system of one assay is NCI-H358 (K-Ras G12C). Put plainly: CellTiter-Glo cell viability assay, NCI-H358. Particulars: read-out: H358 Cell Viability assay data (K-Ras G12C, IC50); 5-day treatment. The assay is classed as cell-based, human. A general note: ATP-based viability assays read luminescence as a measure of living cells.
In assay [1] the test system is NCI-H358 cells (K-Ras G12C). The experiment in a line: CellTiter-Glo cell viability, NCI-H358. Type of assay: cell-based, human. The settings on record: read-out: H358 Cell Viability IC50; K-Ras G12C, 5-day treatment.
The test system of assay [2] is K-Ras G12C (NCI-H358 cells). Put plainly: Potency assay: pERK in NCI-H358 cells. Type of assay: cell-based, human. The settings on record: read-out: pERK EC50 (H358 KRAS G12C), 4 hours.
Another assay concerns the target KRAS G12V (Homo sapiens (Human), UniProt P01116+P62937, G12V). The experiment in a line: Ras-Raf disruption/FRET/MOA assay (BRAF RBD, Cyclophilin A). Type of assay: biochemical. The settings on record: read-out: KRAS G12V FRET IC50.
Another assay concerns the target KRAS G12C (Homo sapiens (Human), UniProt P01116+P62937, G12C). The description is as above. The assay is classed as biochemical. Particulars: read-out: KRAS G12C FRET IC50.
Another assay has as its target KRAS G13C (Homo sapiens (Human), UniProt P01116+P62937, G13C). Described as above. The settings on record: read-out: KRAS G13C FRET IC50. Type of assay: biochemical.
The target in the next assay is KRAS Q61H (Homo sapiens (Human), UniProt P01116+P62937, Q61H). Described as above. Type of assay: biochemical. The settings on record: read-out: KRAS Q61H FRET IC50.
The target in another assay is KRAS G12D (Homo sapiens (Human), UniProt P01116+P62937, G12D). The description is as above. The assay is classed as biochemical. The settings on record: read-out: KRAS G12D FRET IC50.
The target of the next assay is KRAS G12S (Homo sapiens (Human), UniProt P01116+P62937, G12S). The assay is described as above. The assay is classed as biochemical. Particulars: read-out: KRAS G12S FRET IC50.
In assay [3] the test system is Capan-1 cells (K-Ras G12V). Put plainly: CellTiter-Glo cell viability, Capan-1. The assay is classed as cell-based, human. Particulars: read-out: Capan-1 Cell Viability IC50, 5-day treatment.
Assay [4] concerns the target K-Ras G12C(GMP-PNP) binding to BRAF RBD (Homo sapiens (Human), UniProt P01116+P62937, G12C). The experiment in a line: Disruption of BRAF RBD interaction with K-Ras (FRET / MOA assay), K-Ras G12C. Type of assay: biochemical. Particulars: read-out: KRAS G12C FRET IC50.

By UniProt entry, the sequences of proteins in these tests, tags left out. Where a name states a change or a piece, a line headed by the entry shows the natural chain unless it says otherwise. Chains listed by the source or under a name are the forms on record and can include a tag or linker. Residues count along the entry.
UniProt P01116, 1-169 isoform 2 G12C limits assumed: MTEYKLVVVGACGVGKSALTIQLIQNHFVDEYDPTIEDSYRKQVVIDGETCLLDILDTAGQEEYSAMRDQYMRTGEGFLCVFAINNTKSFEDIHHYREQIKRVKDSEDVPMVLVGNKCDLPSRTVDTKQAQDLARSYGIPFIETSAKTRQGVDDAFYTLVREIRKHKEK
UniProt P01116, 1-164 with tags or gaps G12C limits assumed: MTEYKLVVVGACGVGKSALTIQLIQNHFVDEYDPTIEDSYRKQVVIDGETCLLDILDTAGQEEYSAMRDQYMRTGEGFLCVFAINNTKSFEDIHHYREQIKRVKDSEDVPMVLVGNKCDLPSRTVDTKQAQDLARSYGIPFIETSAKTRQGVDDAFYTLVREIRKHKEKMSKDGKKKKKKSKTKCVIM
UniProt P01116, 1-164 with tags or gaps G12D limits assumed: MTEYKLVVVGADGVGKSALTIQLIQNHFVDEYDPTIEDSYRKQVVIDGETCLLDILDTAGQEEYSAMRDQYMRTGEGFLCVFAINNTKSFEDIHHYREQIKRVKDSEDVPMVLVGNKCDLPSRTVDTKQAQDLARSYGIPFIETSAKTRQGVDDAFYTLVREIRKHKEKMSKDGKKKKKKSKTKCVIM
UniProt P01116, 1-164 with tags or gaps G13C limits assumed: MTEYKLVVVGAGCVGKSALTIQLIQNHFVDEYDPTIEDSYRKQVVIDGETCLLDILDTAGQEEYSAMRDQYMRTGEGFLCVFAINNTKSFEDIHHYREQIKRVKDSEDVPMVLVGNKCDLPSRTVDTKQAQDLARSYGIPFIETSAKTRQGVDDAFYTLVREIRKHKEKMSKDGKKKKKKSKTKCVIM
UniProt P01116, 1-164 with tags or gaps G12S limits assumed: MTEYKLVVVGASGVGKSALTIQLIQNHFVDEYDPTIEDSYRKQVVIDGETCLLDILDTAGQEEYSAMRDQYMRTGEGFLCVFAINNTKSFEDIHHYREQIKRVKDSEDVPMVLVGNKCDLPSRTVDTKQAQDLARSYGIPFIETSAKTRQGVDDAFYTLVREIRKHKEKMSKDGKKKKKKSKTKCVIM
UniProt P01116, 1-164 with tags or gaps G12V limits assumed: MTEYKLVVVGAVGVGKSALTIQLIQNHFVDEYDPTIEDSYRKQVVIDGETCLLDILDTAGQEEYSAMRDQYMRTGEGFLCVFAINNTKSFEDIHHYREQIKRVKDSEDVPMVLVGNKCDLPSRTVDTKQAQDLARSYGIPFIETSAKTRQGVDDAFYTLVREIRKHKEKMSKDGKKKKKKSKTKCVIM
UniProt P01116, 1-164 with tags or gaps Q61H limits assumed: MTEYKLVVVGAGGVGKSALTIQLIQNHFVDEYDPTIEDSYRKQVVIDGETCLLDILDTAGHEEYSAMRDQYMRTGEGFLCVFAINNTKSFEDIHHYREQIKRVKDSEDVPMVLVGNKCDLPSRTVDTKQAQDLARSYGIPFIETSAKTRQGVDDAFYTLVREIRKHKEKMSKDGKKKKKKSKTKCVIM
UniProt P62937, whole entry, stated change not applied: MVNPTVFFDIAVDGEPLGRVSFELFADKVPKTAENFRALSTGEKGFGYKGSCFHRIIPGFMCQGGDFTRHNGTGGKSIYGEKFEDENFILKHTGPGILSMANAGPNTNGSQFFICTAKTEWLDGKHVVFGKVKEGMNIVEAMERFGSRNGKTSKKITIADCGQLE

Structures were worked out from names or drawings and are uncertain. Some results are limits rather than exact numbers.

The values that follow come from patent publication US20250195521A1 (Revolution Medicines, Inc., priority 2020, published 2025).

`CCn1c(-c2cnccc2COC)c2c3cc(ccc31)-c1cc(O)cc(c1)C[C@H](NC(=O)[C@H](C(C)C)N(C)C(=O)c1ncco1)C(=O)N1CCC[C@H](N1)C(=O)OCC(C)(C)C2`: the IC50 was below 10 nM with NCI-H358 (K-Ras G12C); 1000 to 10000 nM in assay [1]; 100 to 1000 nM on KRAS G12V; 100 to 1000 nM on KRAS G12C; 1000 to 10000 nM at KRAS G13C; 10 to 100 nM at KRAS Q61H. The IC50 on KRAS G12D is 1000 to 10000 nM; at KRAS G12S, 100 to 1000 nM. Further, in [2], the EC50 is below 5000 nM.

In the case of `CCn1c(-c2cccnc2[C@H](C)OC)c2c3cc(ccc31)-c1csc(n1)C[C@H](NC(=O)[C@H](C(C)C)N(C)C(=O)N1C[C@@H](C)N(C)C[C@H]1C)C(=O)N1CCC[C@H](N1)C(=O)OCC(C)(C)C2`, the IC50 was above 10000 nM in the assay with NCI-H358 (K-Ras G12C); 10 to 100 nM in assay [1]; 10 to 100 nM in [3]; above 10000 nM in [4]; 100 to 1000 nM at KRAS G12V; 100 to 1000 nM at KRAS G12C. The IC50 on KRAS G13C fell in the range of 100 to 1000 nM; on KRAS Q61H, 100 to 1000 nM; on KRAS G12D it was 1000 to 10000 nM; on KRAS G12S it was 100 to 1000 nM.

On to `CCn1c(-c2cccnc2[C@H](C)OC)c2c3cc(ccc31)-c1csc(n1)C[C@H](NC(=O)[C@H](C(C)C)N1CCC3(CN(C(=O)OC)C3)C1=O)C(=O)N1CCC[C@H](N1)C(=O)OCC(C)(C)C2`, for which, on KRAS G13C, the IC50 was 1000 to 10000 nM.

As to `CCOC(=O)N1CC[C@H](C(=O)N(C)[C@H](C(=O)N[C@H]2Cc3cc(O)cc(c3)-c3ccc4c(c3)c(c(-c3cccnc3[C@H](C)OC)n4CC)CC(C)(C)COC(=O)[C@@H]3CCCN(N3)C2=O)C(C)C)C1`, the IC50 at KRAS G12C fell in the range of 10 to 100 nM; on KRAS G12D, 100 to 1000 nM.

`C=CC(=O)N1CC[C@H](C(=O)N(C)[C@H](C(=O)N[C@H]2Cc3cccc(c3)-c3ccc4c(c3)c(c(-c3cccnc3[C@H](C)OC)n4CC)CC(C)(C)COC(=O)[C@@H]3CCCN(N3)C2=O)C(C)C)[C@@H]1C`: the IC50 with NCI-H358 (K-Ras G12C) was above 10000 nM.

With `CCn1c(-c2cccnc2[C@H](C)OC)c2c3cc(ccc31)-c1csc(n1)C[C@H](NC(=O)[C@H](C(C)C)N(C)C(=O)N1C[C@@H]3CN(C)C[C@@H]31)C(=O)N1CCC[C@H](N1)C(=O)OCC(C)(C)C2`, the IC50 in the assay on NCI-H358 (K-Ras G12C) was below 10 nM; in assay [3], above 10000 nM; at KRAS G12C, 1000 to 10000 nM; on KRAS G13C it was 1000 to 10000 nM; on KRAS Q61H, 1000 to 10000 nM; at KRAS G12S, 1000 to 10000 nM. For the same compound, in assay [2], the EC50 was below 5000 nM.

For the compound `CCn1c(-c2cccnc2[C@H](C)OC)c2c3cc(ccc31)-c1cc(O)cc(c1)C[C@H](NC(=O)CCc1ccncc1)C(=O)N1CCC[C@H](N1)C(=O)OCC(C)(C)C2`, the IC50 in the assay with NCI-H358 (K-Ras G12C) is 100 to 1000 nM; in assay [3], above 10000 nM; in assay [4], 100 to 1000 nM; at KRAS G12V, 1000 to 10000 nM; at KRAS G12C, 1000 to 10000 nM; at KRAS G13C it was 100 to 1000 nM. Also, the IC50 at KRAS Q61H lay within 100 to 1000 nM; on KRAS G12D it was 1000 to 10000 nM; at KRAS G12S, 1000 to 10000 nM. Moreover, in assay [2], the EC50 was below 5000 nM.

`C=CC(=O)N1CC[C@H](C(=O)N(C)[C@H](C(=O)N[C@H]2Cc3cc(O)cc(c3)-c3ccc4c(c3)c(c(-c3cccnc3COC)n4CC#N)CC(C)(C)COC(=O)[C@@H]3CCCN(N3)C2=O)C(C)C)C1`: the IC50 in assay [4] is 10 to 100 nM.

Take `CCn1c(-c2cccnc2[C@H](C)OC)c2c3cc(ccc31)-c1cc(O)cc(c1)C[C@H](NC(=O)[C@H](C(C)C)N(C)C(=O)[C@H]1C[C@H](O)C1)C(=O)N1CCC[C@H](N1)C(=O)OCC(C)(C)C2`: the IC50 on KRAS G12C lay in the range of 10 to 100 nM; on KRAS G12D, 100 to 1000 nM.

For the compound `CCn1c(-c2cccnc2[C@H](C)OC)c2c3cc(ccc31)-c1csc(n1)C[C@H](NC(=O)[C@H](C(C)C)N(C)C(=O)[C@H]1OCC[C@H]1c1ccccc1)C(=O)N1CCC[C@H](N1)C(=O)OCC(C)(C)C2`, the IC50 is above 10000 nM in the assay with NCI-H358 (K-Ras G12C); 1000 to 10000 nM at KRAS G12V; 1000 to 10000 nM on KRAS G12C; 1000 to 10000 nM at KRAS G13C; 1000 to 10000 nM on KRAS G12D; 1000 to 10000 nM at KRAS G12S.

On to `CCn1c(-c2cccnc2[C@H](C)OC)c2c3cc(ccc31)-c1csc(n1)C[C@H](NC(=O)[C@H](C(C)C)N(C)C(=O)N1CC(NS(C)(=O)=O)C1)C(=O)N1CCC[C@H](N1)C(=O)OCC(C)(C)C2`, for which the IC50 was below 10 nM in the assay on NCI-H358 (K-Ras G12C); 10 to 100 nM in assay [1]; 100 to 1000 nM in assay [3]; 10 to 100 nM in assay [4]; 100 to 1000 nM on KRAS G12V; 10 to 100 nM on KRAS G12C. For the same compound, the IC50 lay within 100 to 1000 nM on KRAS G13C, 10 to 100 nM on KRAS Q61H, 100 to 1000 nM at KRAS G12D and 100 to 1000 nM on KRAS G12S. Further, the EC50 in assay [2] was below 5000 nM.

As to `CCn1c(-c2cccnc2[C@H](C)OC)c2c3cc(ccc31)-c1csc(n1)C[C@H](NC(=O)[C@H](C(C)C)N(C)C(=O)N1CCO[C@H](C)C1)C(=O)N1CCC[C@H](N1)C(=O)OCC(C)(C)C2`, the IC50 in the assay on NCI-H358 (K-Ras G12C) was 10 to 100 nM; in assay [1], below 10 nM; in assay [3], 10 to 100 nM; on KRAS G12V, 100 to 1000 nM; at KRAS G12C, 10 to 100 nM; on KRAS G13C, 100 to 1000 nM. For the same compound, the IC50 at KRAS Q61H is 10 to 100 nM; on KRAS G12D, 100 to 1000 nM; on KRAS G12S, 100 to 1000 nM. In addition, the EC50 in [2] is below 5000 nM.

Turning to `C=CC(=O)N1CC[C@H](C(=O)N(C)[C@H](C(=O)N[C@H]2Cc3cc(N)cc(c3)-c3ccc4c(c3)c(c(-c3ccccc3COC)n4CC)CC(C)(C)COC(=O)[C@@H]3CCCN(N3)C2=O)C(C)C)C1` [A042], the IC50 in [4] lay in the range of 100 to 1000 nM.

Consider `C=CC(=O)N1CC[C@H](C(=O)N(C)[C@H](C(=O)N[C@H]2Cc3cc(O)cc(c3)-c3ccc4c(c3)c(c(-c3ccccc3COC)n4CC)CC(C)(C)COC(=O)[C@@H]3CCCN(N3)C2=O)C2CCCC2)C1`, for which, in assay [4], the IC50 lay within 10 to 100 nM.

As to `C=CC(=O)N1CC[C@H](C(=O)N(C)[C@H](C(=O)N[C@H]2Cc3cc(OC(=O)N(C)CC(=O)O)cc(c3)-c3ccc4c(c3)c(c(-c3ccccc3CCOC)n4CC)CC(C)(C)COC(=O)[C@@H]3CCCN(N3)C2=O)C(C)C)C1` [Compound A78], in assay [4], the IC50 was 100 to 1000 nM.

As for `CCn1c(-c2cccnc2[C@H](C)OC)c2c3cc(ccc31)-c1csc(n1)C[C@H](NC(=O)[C@H](C(C)C)N(C)C(=O)[C@H]1CCN(C(=O)C#CCN3CCOCC3)C1)C(=O)N1CCC[C@H](N1)C(=O)OCC(C)(C)C2`, in assay [3], the IC50 is above 10000 nM.

Turning to `C=CC(=O)N1CC[C@H](C(=O)N(C)[C@H](C(=O)N[C@H]2Cc3cc(O)cc(c3)-c3ccc4c(c3)c(c(-c3ccc(C5CCN(C)CC5)nc3)n4CC)CC(C)(C)COC(=O)[C@@H]3CCCN(N3)C2=O)C(C)C)C1`, the IC50 in [4] was 100 to 1000 nM.

`C=CC(=O)N1CCC(F)(C(=O)N(C)[C@H](C(=O)N[C@H]2Cc3cc(O)cc(c3)-c3ccc4c(c3)c(c(-c3ccccc3CCOC)n4CC)CC(C)(C)COC(=O)[C@@H]3CCCN(N3)C2=O)C(C)C)CC1`: in assay [4], the IC50 is 100 to 1000 nM.
